## Library screen at single concentrations

By UniProt entry, the sequences of proteins in these tests, tags left out. Residues count along the entry.
UniProt Q4DA54, 1-478: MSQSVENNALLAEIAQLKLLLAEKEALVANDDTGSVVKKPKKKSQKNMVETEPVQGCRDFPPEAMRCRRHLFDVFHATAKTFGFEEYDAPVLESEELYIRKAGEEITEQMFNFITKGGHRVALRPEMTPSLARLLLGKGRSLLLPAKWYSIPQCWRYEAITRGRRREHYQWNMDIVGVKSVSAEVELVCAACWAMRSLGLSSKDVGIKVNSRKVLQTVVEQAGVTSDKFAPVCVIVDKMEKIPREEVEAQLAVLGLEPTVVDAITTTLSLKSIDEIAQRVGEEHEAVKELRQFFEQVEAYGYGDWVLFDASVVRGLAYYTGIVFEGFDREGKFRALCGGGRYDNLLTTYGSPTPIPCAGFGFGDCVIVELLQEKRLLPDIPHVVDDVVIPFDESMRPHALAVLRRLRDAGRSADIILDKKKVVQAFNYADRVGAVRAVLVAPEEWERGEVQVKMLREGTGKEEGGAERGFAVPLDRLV
UniProt A4I591, 1-473: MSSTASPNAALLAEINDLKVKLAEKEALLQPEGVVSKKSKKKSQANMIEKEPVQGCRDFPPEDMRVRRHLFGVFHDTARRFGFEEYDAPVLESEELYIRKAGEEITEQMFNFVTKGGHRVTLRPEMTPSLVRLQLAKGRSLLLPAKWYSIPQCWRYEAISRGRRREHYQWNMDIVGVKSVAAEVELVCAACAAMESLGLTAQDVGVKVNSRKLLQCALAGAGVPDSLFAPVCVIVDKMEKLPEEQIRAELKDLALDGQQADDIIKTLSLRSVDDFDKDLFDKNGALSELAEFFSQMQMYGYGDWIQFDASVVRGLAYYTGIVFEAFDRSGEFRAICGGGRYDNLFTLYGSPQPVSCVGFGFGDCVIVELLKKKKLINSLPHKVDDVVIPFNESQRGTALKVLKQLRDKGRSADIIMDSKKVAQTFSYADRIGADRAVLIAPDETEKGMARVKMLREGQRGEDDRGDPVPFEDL

TcHisRS: 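Enzyme assay of histidyl-tRNA synthetase; the read-out is not stated. Target: Histidine-tRNA ligase, Trypanosoma cruzi CL Brener (UniProt Q4DA54). Concentration: 30 µM. Direction is inferred from retests: higher values go with stronger inhibition. About 69,000 compounds were tested under these conditions; 0.045% (about 31) showed 50% or more at least once.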
LiHisRS: 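Histidine-tRNA ligase, Leishmania infantum (UniProt A4I591). Enzyme assay of histidyl-tRNA synthetase; the read-out is not stated. Tested at 30 µM. Direction is inferred from retests: higher values go with stronger inhibition. The assay is labelled LdHisRS but filed under L. infantum. Of about 69,000 compounds tested this way, about 410 (0.6%) reached 50% or more in at least one test.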

The filed quantity is “Percent Effect” (%). The controls that fix the scale are not given in the record; negative values are as filed. The compounds are a random part of those screened.

Result for Cn1nc(CC(C)(C)C)cc1NC(=O)c1ccc2[nH]nnc2c1 was TcHisRS: 6.494%; LiHisRS: 8.333%.
Result for O=C(c1nc2c(s1)CCCN2C(=O)C1CC1)N1CCCC1 was TcHisRS: 2.151%; LiHisRS: 14.04%.
Result for Cc1nn(CC(C)C)c(N(C)C)c1CNCCS(C)(=O)=O was TcHisRS: 7.514%; LiHisRS: 19.15%.
Result for Cc1ccn(CCNc2ncnc3c2CCN(S(C)(=O)=O)CC3)n1 was TcHisRS: 2.02%; LiHisRS: 11.48%.
Result for COCC(=O)N1CCC2(CCC2NS(=O)(=O)c2ccccc2)CC1 (stereo unspecified) was TcHisRS: 6.329%; LiHisRS: 10.34%.
Result for CCNC(=O)N1CCCCC1CCNS(C)(=O)=O (stereo unspecified) was TcHisRS: 0%; LiHisRS: 21.15%.
Result for COc1ccc(CNC(=O)NCC2CCOC2)c(C(F)(F)F)c1 (stereo unspecified) was TcHisRS: 6.504%; LiHisRS: 22.12%.
Result for COc1ncccc1C(=O)N1CCCC1c1nc(-c2ccccc2)no1 (stereo unspecified) was TcHisRS: -1.235%; LiHisRS: 15.05%.
Result for O=c1cc(Cn2cncn2)nc2n1CCCN(Cc1ccco1)C2 was TcHisRS: 6.897%; LiHisRS: 34%.
Result for Cc1nnc2n1CCN(c1nc3ccccc3o1)C2 was TcHisRS: 5.319%; LiHisRS: 13.43%.
Result for CCCC(=O)NCC(=O)Nc1cc(F)ccc1SCC(F)F was TcHisRS: 7.937%; LiHisRS: 13.7%.
Result for Cc1nc(C)n(CC2CCCN(CC3CCCCC3)C2)n1 (stereo unspecified) was TcHisRS: 11.37%; LiHisRS: 22.12%.
Result for Cc1cnc(CN(C)C2CCCN(Cc3noc(C4CC4)n3)C2)cn1 (stereo unspecified) was TcHisRS: 2.89%; LiHisRS: 13.16%.
Result for COc1ccc(CN2CCO[C@@H]3C[C@@H](C(=O)NC(C)C)C[C@H]32)cc1 was TcHisRS: 2.488%; LiHisRS: 25%.
Result for O=S(=O)(C1CC1)N1CCc2ncnc(-c3ccncc3)c2CC1 was TcHisRS: 4.813%; LiHisRS: 14.53%.
Result for N#Cc1ccc2c(c1)CN(C(=O)c1nc[nH]n1)C2c1cnco1 (stereo unspecified) was TcHisRS: 5.063%; LiHisRS: 15.52%.
Result for CC1(C2CCN(CCCC(=O)O)CC2)CN(Cc2ccccc2)C(=O)O1 (stereo unspecified) was TcHisRS: 6.844%; LiHisRS: 14.48%.
Result for Cc1nc(C(=O)N2CCN(S(C)(=O)=O)CC2)c(-c2ccccc2)s1 was TcHisRS: -2.439%; LiHisRS: 26.32%.
Result for CC(=O)N1CCOCC2(CCCNC2)C1 (stereo unspecified) was TcHisRS: 12.62%; LiHisRS: 15.53%.
Result for CCOc1cccc(NC(=O)c2cscn2)n1 was TcHisRS: 11.84%; LiHisRS: 17.5%.
Result for CCCC(Nc1c(C#N)c(=O)n(C)c(=O)n1C)c1ccc(F)cc1F (stereo unspecified) was TcHisRS: 5.263%; LiHisRS: 12.36%.
Result for CCc1n[nH]c(C2CN(Cc3csc(COC)n3)CCO2)n1 (stereo unspecified) was TcHisRS: 6.349%; LiHisRS: -2.74%.
Result for O=S(=O)(c1cnccc1N1CCN(CCO)CC1)N1CCOCC1 was TcHisRS: 0.8772%; LiHisRS: 8.929%.

Some entries from above, unchanged:

{"structure": "N#Cc1ccc2c(c1)CN(C(=O)c1nc[nH]n1)C2c1cnco1", "stereo": "stereo unspecified", "TcHisRS": 5.063, "LiHisRS": 15.52}
{"structure": "CC1(C2CCN(CCCC(=O)O)CC2)CN(Cc2ccccc2)C(=O)O1", "stereo": "stereo unspecified", "TcHisRS": 6.844, "LiHisRS": 14.48}

Measurements from “University of Dundee, Small-Polar-MMV Screening Library” (2021), ChEMBL document CHEMBL3988442.